Consider 34 targets from the supplement of paper PMC10849652.

Sequences of proteins named here, by UniProt entry; tags and fusion partners are left off. A change or cut given only in a name is not applied to a line headed by its entry.
UniProt P27449, whole entry, looked up: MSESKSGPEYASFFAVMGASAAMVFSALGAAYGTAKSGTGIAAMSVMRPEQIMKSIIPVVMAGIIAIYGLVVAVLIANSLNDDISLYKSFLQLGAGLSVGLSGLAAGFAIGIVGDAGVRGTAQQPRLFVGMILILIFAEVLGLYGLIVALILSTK
UniProt Q6UWY0: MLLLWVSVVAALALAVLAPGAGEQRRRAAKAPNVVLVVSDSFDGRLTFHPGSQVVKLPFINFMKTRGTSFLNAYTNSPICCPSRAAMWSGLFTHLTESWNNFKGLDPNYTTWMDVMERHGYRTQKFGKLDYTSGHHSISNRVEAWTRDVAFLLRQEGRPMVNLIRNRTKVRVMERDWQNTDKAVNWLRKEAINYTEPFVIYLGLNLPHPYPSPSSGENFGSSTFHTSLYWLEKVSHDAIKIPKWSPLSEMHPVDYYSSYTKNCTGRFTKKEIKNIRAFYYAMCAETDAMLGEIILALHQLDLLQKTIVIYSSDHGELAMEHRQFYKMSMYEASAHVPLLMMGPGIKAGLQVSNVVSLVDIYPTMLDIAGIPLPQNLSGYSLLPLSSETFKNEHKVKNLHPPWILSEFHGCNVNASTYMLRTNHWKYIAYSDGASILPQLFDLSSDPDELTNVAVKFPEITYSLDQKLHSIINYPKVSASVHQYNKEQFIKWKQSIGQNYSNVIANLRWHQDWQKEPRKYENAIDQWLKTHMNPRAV
UniProt Q8NHH9: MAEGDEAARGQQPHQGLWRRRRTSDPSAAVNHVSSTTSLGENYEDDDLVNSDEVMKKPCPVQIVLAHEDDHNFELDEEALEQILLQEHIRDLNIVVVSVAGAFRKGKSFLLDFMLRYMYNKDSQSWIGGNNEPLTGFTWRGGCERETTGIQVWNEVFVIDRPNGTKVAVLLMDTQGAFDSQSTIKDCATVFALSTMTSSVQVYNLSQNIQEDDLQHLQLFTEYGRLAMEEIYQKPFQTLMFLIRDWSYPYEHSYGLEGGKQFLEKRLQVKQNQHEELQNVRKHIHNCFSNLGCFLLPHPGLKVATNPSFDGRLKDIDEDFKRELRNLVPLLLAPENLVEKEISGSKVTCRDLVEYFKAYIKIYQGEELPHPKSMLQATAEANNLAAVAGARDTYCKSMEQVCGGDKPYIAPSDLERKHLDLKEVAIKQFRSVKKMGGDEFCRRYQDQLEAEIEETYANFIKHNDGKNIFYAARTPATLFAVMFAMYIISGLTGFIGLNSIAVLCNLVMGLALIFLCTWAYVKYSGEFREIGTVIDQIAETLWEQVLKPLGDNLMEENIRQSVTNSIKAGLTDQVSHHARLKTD
UniProt Q9H0Y0: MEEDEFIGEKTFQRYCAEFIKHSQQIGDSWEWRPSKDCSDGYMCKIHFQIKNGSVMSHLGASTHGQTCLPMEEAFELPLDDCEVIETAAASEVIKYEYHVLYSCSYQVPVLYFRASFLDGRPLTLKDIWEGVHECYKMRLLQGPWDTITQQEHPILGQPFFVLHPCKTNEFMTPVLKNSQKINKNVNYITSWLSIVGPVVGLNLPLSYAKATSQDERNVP
UniProt P18847: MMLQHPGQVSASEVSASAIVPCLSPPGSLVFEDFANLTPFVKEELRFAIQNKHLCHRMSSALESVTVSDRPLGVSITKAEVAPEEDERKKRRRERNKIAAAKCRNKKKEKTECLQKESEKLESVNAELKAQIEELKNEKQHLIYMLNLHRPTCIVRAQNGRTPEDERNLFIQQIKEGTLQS
UniProt Q9NWX5: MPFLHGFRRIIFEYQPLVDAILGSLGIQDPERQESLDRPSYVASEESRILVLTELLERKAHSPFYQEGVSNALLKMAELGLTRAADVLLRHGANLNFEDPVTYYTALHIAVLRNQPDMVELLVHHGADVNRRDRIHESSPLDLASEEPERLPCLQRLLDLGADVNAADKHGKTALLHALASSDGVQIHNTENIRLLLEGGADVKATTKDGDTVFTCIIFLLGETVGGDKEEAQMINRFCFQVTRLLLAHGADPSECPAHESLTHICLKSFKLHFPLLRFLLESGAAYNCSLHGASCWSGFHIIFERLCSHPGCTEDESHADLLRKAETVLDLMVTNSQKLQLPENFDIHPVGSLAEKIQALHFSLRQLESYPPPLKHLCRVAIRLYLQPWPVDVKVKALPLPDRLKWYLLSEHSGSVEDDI
UniProt Q96KC2: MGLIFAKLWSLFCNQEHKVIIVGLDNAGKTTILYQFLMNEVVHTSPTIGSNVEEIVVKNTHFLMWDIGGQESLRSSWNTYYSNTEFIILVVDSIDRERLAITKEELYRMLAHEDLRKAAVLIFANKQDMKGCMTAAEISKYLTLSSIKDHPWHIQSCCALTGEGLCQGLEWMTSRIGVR
UniProt P17544: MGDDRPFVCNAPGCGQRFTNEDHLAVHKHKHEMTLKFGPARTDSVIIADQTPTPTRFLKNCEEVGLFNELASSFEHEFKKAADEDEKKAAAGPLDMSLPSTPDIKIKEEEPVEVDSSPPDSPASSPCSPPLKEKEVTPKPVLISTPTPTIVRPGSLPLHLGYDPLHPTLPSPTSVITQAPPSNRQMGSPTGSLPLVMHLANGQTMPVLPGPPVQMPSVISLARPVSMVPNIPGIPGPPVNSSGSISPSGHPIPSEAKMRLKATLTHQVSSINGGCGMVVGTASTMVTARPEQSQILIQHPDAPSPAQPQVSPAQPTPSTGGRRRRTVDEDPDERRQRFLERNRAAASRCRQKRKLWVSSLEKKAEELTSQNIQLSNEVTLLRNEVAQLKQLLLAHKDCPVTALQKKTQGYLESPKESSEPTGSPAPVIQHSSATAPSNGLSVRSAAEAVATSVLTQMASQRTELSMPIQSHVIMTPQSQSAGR
UniProt Q6VMQ6: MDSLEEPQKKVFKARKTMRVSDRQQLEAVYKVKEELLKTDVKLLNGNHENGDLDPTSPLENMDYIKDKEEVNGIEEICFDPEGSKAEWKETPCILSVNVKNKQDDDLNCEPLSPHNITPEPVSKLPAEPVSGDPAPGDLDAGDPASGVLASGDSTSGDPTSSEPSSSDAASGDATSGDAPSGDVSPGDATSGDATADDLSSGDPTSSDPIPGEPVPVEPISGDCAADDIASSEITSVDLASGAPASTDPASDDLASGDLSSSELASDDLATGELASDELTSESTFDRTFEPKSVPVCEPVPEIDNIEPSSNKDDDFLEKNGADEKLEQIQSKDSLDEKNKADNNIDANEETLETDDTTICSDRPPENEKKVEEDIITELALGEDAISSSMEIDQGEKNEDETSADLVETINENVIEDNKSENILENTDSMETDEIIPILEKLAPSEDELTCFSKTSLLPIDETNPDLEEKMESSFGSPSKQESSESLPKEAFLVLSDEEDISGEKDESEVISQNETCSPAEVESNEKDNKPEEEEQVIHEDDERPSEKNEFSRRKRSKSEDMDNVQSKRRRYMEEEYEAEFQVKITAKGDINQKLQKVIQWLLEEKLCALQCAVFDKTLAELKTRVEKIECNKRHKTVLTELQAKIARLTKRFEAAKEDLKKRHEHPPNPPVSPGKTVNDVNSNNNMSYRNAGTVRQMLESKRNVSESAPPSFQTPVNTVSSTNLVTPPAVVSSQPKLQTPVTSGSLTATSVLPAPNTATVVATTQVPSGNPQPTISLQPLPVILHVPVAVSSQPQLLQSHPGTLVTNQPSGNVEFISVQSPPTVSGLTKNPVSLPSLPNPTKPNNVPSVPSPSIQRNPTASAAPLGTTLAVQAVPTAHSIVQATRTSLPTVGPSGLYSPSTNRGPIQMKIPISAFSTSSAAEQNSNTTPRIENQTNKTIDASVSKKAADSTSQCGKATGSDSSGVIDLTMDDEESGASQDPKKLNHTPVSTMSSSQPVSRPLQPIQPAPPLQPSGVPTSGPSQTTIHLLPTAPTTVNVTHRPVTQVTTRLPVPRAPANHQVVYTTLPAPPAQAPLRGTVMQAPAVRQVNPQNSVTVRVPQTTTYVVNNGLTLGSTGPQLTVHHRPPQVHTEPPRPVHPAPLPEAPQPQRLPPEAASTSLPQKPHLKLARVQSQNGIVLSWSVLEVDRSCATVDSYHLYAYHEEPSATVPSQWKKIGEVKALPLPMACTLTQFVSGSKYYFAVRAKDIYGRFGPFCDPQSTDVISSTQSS
UniProt Q9H0F7: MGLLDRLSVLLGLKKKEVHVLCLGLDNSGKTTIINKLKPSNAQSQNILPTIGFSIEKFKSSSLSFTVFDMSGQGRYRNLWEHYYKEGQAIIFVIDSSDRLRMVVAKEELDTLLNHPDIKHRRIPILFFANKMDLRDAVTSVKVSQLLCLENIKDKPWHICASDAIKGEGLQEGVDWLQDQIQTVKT
UniProt P98198: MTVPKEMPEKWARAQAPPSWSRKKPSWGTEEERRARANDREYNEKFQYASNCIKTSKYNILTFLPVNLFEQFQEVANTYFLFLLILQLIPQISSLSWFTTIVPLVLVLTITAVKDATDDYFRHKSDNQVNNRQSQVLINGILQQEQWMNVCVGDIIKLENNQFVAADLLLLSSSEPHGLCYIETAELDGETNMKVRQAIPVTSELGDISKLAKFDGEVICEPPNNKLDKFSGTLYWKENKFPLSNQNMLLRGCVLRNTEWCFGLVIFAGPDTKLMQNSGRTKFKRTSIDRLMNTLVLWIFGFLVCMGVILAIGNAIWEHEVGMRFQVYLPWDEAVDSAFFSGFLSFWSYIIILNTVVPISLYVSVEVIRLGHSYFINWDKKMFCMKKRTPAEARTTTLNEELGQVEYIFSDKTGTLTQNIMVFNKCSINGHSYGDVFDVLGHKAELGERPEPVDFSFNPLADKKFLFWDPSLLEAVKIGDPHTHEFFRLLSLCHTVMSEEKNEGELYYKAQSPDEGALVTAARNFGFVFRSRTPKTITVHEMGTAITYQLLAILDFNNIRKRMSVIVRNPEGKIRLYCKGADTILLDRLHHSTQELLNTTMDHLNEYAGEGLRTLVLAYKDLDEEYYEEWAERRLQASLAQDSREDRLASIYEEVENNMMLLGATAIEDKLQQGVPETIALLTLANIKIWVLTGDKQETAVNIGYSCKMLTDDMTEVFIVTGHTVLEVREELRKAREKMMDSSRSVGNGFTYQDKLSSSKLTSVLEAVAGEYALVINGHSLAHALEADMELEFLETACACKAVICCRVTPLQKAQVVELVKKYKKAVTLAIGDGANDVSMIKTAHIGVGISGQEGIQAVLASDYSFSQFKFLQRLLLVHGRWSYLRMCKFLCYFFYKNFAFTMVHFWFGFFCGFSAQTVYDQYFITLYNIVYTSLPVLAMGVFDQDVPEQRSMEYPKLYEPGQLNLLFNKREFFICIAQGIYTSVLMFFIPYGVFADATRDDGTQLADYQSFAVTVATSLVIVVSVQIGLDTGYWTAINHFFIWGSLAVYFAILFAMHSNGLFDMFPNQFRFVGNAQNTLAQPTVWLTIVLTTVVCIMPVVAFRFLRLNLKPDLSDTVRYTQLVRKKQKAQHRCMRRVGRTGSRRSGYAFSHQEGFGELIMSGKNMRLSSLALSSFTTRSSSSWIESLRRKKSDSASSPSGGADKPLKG
UniProt O95260: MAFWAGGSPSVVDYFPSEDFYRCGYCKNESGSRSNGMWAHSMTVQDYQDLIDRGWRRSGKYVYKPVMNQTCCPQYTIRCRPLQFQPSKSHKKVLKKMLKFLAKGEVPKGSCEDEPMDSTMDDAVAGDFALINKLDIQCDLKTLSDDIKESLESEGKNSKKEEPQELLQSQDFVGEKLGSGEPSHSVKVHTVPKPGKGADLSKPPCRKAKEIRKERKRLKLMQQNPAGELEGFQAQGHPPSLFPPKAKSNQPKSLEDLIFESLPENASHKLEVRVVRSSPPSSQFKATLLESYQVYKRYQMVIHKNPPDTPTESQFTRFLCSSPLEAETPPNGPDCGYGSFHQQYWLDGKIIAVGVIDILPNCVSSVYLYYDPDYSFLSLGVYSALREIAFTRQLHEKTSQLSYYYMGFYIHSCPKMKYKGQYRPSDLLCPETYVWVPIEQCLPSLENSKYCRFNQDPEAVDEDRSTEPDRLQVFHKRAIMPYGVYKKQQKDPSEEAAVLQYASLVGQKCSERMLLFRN
UniProt Q8WYN0: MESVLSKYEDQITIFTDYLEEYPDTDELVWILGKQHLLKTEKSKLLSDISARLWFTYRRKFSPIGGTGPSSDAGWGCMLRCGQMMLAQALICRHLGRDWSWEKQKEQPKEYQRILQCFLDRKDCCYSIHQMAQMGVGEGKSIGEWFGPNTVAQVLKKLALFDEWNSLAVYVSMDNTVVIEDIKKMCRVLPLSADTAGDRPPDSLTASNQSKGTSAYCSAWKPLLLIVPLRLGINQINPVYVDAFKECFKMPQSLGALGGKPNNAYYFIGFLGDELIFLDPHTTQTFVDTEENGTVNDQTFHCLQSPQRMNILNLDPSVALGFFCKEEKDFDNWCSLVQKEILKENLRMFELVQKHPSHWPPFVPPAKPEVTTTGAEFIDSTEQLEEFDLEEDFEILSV
UniProt Q9Y689: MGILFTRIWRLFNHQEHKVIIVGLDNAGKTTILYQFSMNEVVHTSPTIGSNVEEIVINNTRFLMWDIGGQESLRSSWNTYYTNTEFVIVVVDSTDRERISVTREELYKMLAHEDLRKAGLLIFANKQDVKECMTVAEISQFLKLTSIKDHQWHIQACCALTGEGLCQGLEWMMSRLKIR

The other results are listed elsewhere or left out.

Compound in one assay: CCCS(=O)(=O)Nc1ccc(F)c(C(=O)c2c[nH]c3ncc(-c4ccc(Cl)cc4)cc23)c1F [vemurafenib]
The assay can be described thus: log2 fold change, soluble protein after heating vs DMSO (PISA); higher = thermal stabilisation; K562 cells, 10 uM, 30 min; active = over 0.2 and 3.5 SD of the protein, either way, in both replicates (recomputed). The essentials:
(§1)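 Thermal stability values are relative to control samples and come from duplicates. They are expressed as log2 fold changes. For measurement, K562 cells (2×10^6 cells/mL) received 10 μM compound for 30 min, and aliquots were heated for 3 min over 48°C-58°C, pooled, and extracted at 4°C in PBS with 0.5% NP-40. Soluble protein, the supernatant after 21,000xg for 90 min, was quantified by TMTpro 16plex LC-MS/MS with equalised channel sums.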
On to ATP6V0C (UniProt P27449), for which the log2 fold change is inactive: -0.156.

For the target ATPSCKMT (UniProt Q6P4H8), the log2 fold change was inactive: 0.005.

On to ATP1B2 (UniProt P14415), for which the log2 fold change is inactive: -0.061.

Take ARSK (UniProt Q6UWY0): the log2 fold change was inactive: -0.028.

As to ATL2 (UniProt Q8NHH9), the log2 fold change was inactive: -0.004.

ATG10 (UniProt Q9H0Y0): the log2 fold change was inactive: -0.085.

Regarding ATF3 (UniProt P18847), the log2 fold change was inactive: -0.05.

As for ASB6 (UniProt Q9NWX5), the log2 fold change was inactive: -0.144.

In the case of ARL5B (UniProt Q96KC2), the log2 fold change was inactive: 0.03.

Turning to ARPIN isoform 2 (UniProt Q7Z6K5), the log2 fold change was inactive: -0.04.

Take ARSA (UniProt P15289): the log2 fold change was inactive: -0.067.

As for ARRDC1 (UniProt Q8N5I2), the log2 fold change was inactive: 0.048.

Consider ATF7 isoform 6 (UniProt P17544), for which the log2 fold change was inactive: 0.045.

Turning to ATF7IP isoform 4 (UniProt Q6VMQ6), the log2 fold change is inactive: 0.086.

For ATP1B1 (UniProt P05026), the log2 fold change was inactive: -0.053.

As to ASS1 (UniProt P00966), the log2 fold change was inactive: -0.042.

Turning to ASCC2 (UniProt Q9H1I8), the log2 fold change was inactive: -0.138.

For the target ATG12 (UniProt O94817), the log2 fold change is inactive: -0.046.

Take ARL6 isoform 2 (UniProt Q9H0F7): the log2 fold change was inactive: -0.029.

ATP8B2 isoform 3 (UniProt P98198): the log2 fold change was inactive: 0.095.

In the case of ARMC8 isoform 6 (UniProt Q8IUR7), the log2 fold change is inactive: 0.031.

In the case of ATE1 (UniProt O95260), the log2 fold change was inactive: 0.018.

Turning to ATP2B2 (UniProt Q01814), the log2 fold change is inactive: -0.069.

With ARRB1 isoform 2 (UniProt P49407), the log2 fold change was inactive: -0.018.

With ASF1B (UniProt Q9NVP2), the log2 fold change was inactive: -0.008.

Consider ATG4A (UniProt Q8WYN0), for which the log2 fold change was inactive: 0.344.

Regarding ATP5F1B (UniProt H0YI37), the log2 fold change is inactive: -0.114.

For the target ARL13B (UniProt Q3SXY8), the log2 fold change was inactive: 0.04.

On to ATF1 (UniProt P18846), for which the log2 fold change was inactive: 0.035.

Compound in a further assay: CCCS(=O)(=O)Nc1ccc(F)c(C(=O)c2c[nH]c3ncc(Cl)cc23)c1F
Described as above. In a few lines:
as §1
For ATP6V0C (UniProt P27449), the log2 fold change is inactive: 0.072.

Take ATPSCKMT (UniProt Q6P4H8): the log2 fold change is inactive: 0.001.

ATP1B2 (UniProt P14415): the log2 fold change was inactive: -0.101.

On to ATL2 (UniProt Q8NHH9), for which the log2 fold change was inactive: 0.005.

Take ATF3 (UniProt P18847): the log2 fold change is inactive: 0.

Take ASB6 (UniProt Q9NWX5): the log2 fold change was inactive: 0.108.

On to ARL5B (UniProt Q96KC2), for which the log2 fold change is inactive: -0.038.

As for ARPIN isoform 2 (UniProt Q7Z6K5), the log2 fold change is inactive: 0.06.

In the case of ARSA (UniProt P15289), the log2 fold change was inactive: -0.119.

For the target ASXL1 (UniProt Q8IXJ9), the log2 fold change was inactive: -0.244.

For the target ARRDC1 (UniProt Q8N5I2), the log2 fold change was inactive: 0.039.

Take ARL5A (UniProt Q9Y689): the log2 fold change was inactive: 0.047.

On to ATF7 isoform 6 (UniProt P17544), for which the log2 fold change is inactive: 0.239.

For ATP1B1 (UniProt P05026), the log2 fold change was inactive: -0.053.

In the case of ASS1 (UniProt P00966), the log2 fold change was inactive: 0.003.

Consider ATG14 (UniProt Q6ZNE5), for which the log2 fold change was inactive: 0.111.

With ATP2C1 isoform 3 (UniProt P98194), the log2 fold change was inactive: 0.02.

Turning to ATG12 (UniProt O94817), the log2 fold change was inactive: 0.03.

As for ATP5F1B (UniProt F8W0P7), the log2 fold change was inactive: -0.151.

As for ATE1 (UniProt O95260), the log2 fold change is inactive: -0.085.

In the case of ATP2B2 (UniProt Q01814), the log2 fold change is inactive: 0.028.

For ARRB1 isoform 2 (UniProt P49407), the log2 fold change is inactive: 0.006.

Regarding ASF1B (UniProt Q9NVP2), the log2 fold change is inactive: -0.062.

As to ATP5F1B (UniProt H0YI37), the log2 fold change was inactive: -0.352.

For ATF1 (UniProt P18846), the log2 fold change was inactive: -0.016.
